Further values from the same series stand in other lists.
Tests used:
Assay type in all cases: cell-based
Conditions in all cases: U-87MG ATCC
[1] = Inhibition of RTK/PI3K/AKT/mTOR signaling in human U87 cells assessed as down regulation of SVIP gene expression at cytotoxic IC50 measured after 48 hrs relative to control
[2] = Inhibition of RTK/PI3K/AKT/mTOR signaling in human U87 cells assessed as up regulation of MXI1 gene expression at cytotoxic IC50 measured after 48 hrs relative to control
[3] = Inhibition of RTK/PI3K/AKT/mTOR signaling in human U87 cells assessed as down regulation of CDKL5 gene expression at cytotoxic IC50 measured after 48 hrs relative to control
[4] = Inhibition of RTK/PI3K/AKT/mTOR signaling in human U87 cells assessed as down regulation of YWHAH gene expression at cytotoxic IC50 measured after 48 hrs relative to control
[5] = Inhibition of RTK/PI3K/AKT/mTOR signaling in human U87 cells assessed as up regulation of anoctamin 1 gene expression at cytotoxic IC50 measured after 48 hrs relative to control
[6] = Inhibition of RTK/PI3K/AKT/mTOR signaling in human U87 cells assessed as down regulation of C5orf51 gene expression at cytotoxic IC50 measured after 48 hrs relative to control
[7] = Inhibition of RTK/PI3K/AKT/mTOR signaling in human U87 cells assessed as up regulation of STK11 gene expression at cytotoxic IC50 measured after 48 hrs relative to control
[8] = Inhibition of RTK/PI3K/AKT/mTOR signaling in human U87 cells assessed as up regulation of inhibitor of growth family member 5 gene expression at cytotoxic IC50 measured after 48 hrs relative to control
[9] = Inhibition of RTK/PI3K/AKT/mTOR signaling in human U87 cells assessed as down regulation of RAD51 gene expression at cytotoxic IC50 measured after 48 hrs relative to control
[10] = Inhibition of RTK/PI3K/AKT/mTOR signaling in human U87 cells assessed as down regulation of CA8 gene expression at cytotoxic IC50 measured after 48 hrs relative to control
[11] = Inhibition of RTK/PI3K/AKT/mTOR signaling in human U87 cells assessed as up regulation of transmembrane protein 161A gene expression at cytotoxic IC50 measured after 48 hrs relative to control
[12] = Inhibition of RTK/PI3K/AKT/mTOR signaling in human U87 cells assessed as down regulation of IKBKAP gene expression at cytotoxic IC50 measured after 48 hrs relative to control
[13] = Inhibition of RTK/PI3K/AKT/mTOR signaling in human U87 cells assessed as up regulation of FAM162A gene expression at cytotoxic IC50 measured after 48 hrs relative to control
[14] = Inhibition of RTK/PI3K/AKT/mTOR signaling in human U87 cells assessed as up regulation of lipin 3 gene expression at cytotoxic IC50 measured after 48 hrs relative to control
[15] = Inhibition of RTK/PI3K/AKT/mTOR signaling in human U87 cells assessed as down regulation of WNK1 gene expression at cytotoxic IC50 measured after 48 hrs relative to control
[16] = Inhibition of RTK/PI3K/AKT/mTOR signaling in human U87 cells assessed as up regulation of PC gene expression at cytotoxic IC50 measured after 48 hrs relative to control
[17] = Inhibition of RTK/PI3K/AKT/mTOR signaling in human U87 cells assessed as up regulation of FKBP9 gene expression at cytotoxic IC50 measured after 48 hrs relative to control
[18] = Inhibition of RTK/PI3K/AKT/mTOR signaling in human U87 cells assessed as up regulation of Ras and Rab interactor like gene expression at cytotoxic IC50 measured after 48 hrs relative to control
[19] = Inhibition of RTK/PI3K/AKT/mTOR signaling in human U87 cells assessed as up regulation of CDC42 effector protein 4 gene expression at cytotoxic IC50 measured after 48 hrs relative to control
[20] = Inhibition of RTK/PI3K/AKT/mTOR signaling in human U87 cells assessed as up regulation of BAI1 associated protein 2 like 1 gene expression at cytotoxic IC50 measured after 48 hrs relative to control
[21] = Inhibition of RTK/PI3K/AKT/mTOR signaling in human U87 cells assessed as up regulation of transmembrane protein 241 gene expression at cytotoxic IC50 measured after 48 hrs relative to control
[22] = Inhibition of RTK/PI3K/AKT/mTOR signaling in human U87 cells assessed as down regulation of PPP2R1B gene expression at cytotoxic IC50 measured after 48 hrs relative to control
[23] = Inhibition of RTK/PI3K/AKT/mTOR signaling in human U87 cells assessed as up regulation of GALNT9 gene expression at cytotoxic IC50 measured after 48 hrs relative to control
[24] = Inhibition of RTK/PI3K/AKT/mTOR signaling in human U87 cells assessed as up regulation of family with sequence similarity 60 member A gene expression at cytotoxic IC50 measured after 48 hrs relative to control
[25] = Inhibition of RTK/PI3K/AKT/mTOR signaling in human U87 cells assessed as up regulation of ataxin 7 like 3 gene expression at cytotoxic IC50 measured after 48 hrs relative to control
[26] = Inhibition of RTK/PI3K/AKT/mTOR signaling in human U87 cells assessed as down regulation of DLST gene expression at cytotoxic IC50 measured after 48 hrs relative to control
[27] = Inhibition of RTK/PI3K/AKT/mTOR signaling in human U87 cells assessed as up regulation of MTDH gene expression at cytotoxic IC50 measured after 48 hrs relative to control
[28] = Inhibition of RTK/PI3K/AKT/mTOR signaling in human U87 cells assessed as up regulation of SLC22A31 gene expression at cytotoxic IC50 measured after 48 hrs relative to control
[29] = Inhibition of RTK/PI3K/AKT/mTOR signaling in human U87 cells assessed as up regulation of LDLR gene expression at cytotoxic IC50 measured after 48 hrs relative to control
[30] = Inhibition of RTK/PI3K/AKT/mTOR signaling in human U87 cells assessed as up regulation of ring finger protein 5 gene expression at cytotoxic IC50 measured after 48 hrs relative to control
[31] = Inhibition of RTK/PI3K/AKT/mTOR signaling in human U87 cells assessed as down regulation of CBL gene expression at cytotoxic IC50 measured after 48 hrs relative to control
[32] = Inhibition of RTK/PI3K/AKT/mTOR signaling in human U87 cells assessed as down regulation of KLHL20 gene expression at cytotoxic IC50 measured after 48 hrs relative to control

Structure (SMILES): CC(=O)C(=NNc1ccccc1C#N)C(C)=O
- log2FC [1]: -1.98
- log2FC [2]: 1.99
- log2FC [3]: -1.09
- log2FC [4]: -0.453
- log2FC [5]: 1.35
- log2FC [6]: -0.662
- log2FC [7]: 0.631
- log2FC [8]: 0.856
- log2FC [9]: -1.19
- log2FC [10]: -3.5
- log2FC [11]: 0.649
- log2FC [12]: -0.502
- log2FC [13]: 1.79
- log2FC [14]: 0.889
- log2FC [15]: -0.791
- log2FC [16]: 1.86
- log2FC [17]: 0.559
- log2FC [18]: 1
- log2FC [19]: 0.721
- log2FC [20]: 0.739
- log2FC [21]: 1.35
- log2FC [22]: -1.31
- log2FC [23]: 2.2
- log2FC [24]: 0.908
- log2FC [25]: 0.654
- log2FC [26]: -0.44
- log2FC [27]: 0.433
- log2FC [28]: 2.98
- log2FC [29]: 0.417
- log2FC [30]: 1.09
- log2FC [31]: -0.594
- log2FC [32]: -1.03

— ChEMBL document CHEMBL4316593 (Eur J Med Chem, 2019)
